Drawing on patent publication US20200369776A1, this text covers binding for 2 molecules.

Positions count from the first letter of the chain named. Results are given in words; binding and its absence hold for the method and conditions named.

One assay has as its target CD95. The assay is described as follows: condition: 100 nM (Example 5; not printed on the sheet); flow cytometry, transfected HEK293F cells, APC: Ag-Ab Binding against FITC: Antigen display.
In another assay the target is CD120a. The description is as above.

B1: AG10059 (antibody, human IgG4 S228P, kappa, V domains shown)
VH: EVQLVESGGGLVQPGGSLRLSCAASGYSITSGHYWAWIRQAPGKGLEWVSSISGYGSTTYYADSVKGRFTISRDNSKNTLYLQLNSLRAEDTAVYYCARGGSDAVLGDWFAYWGQGTLVTVSS
VL: DIQLTQSPSSLSASVGDRVTITCRASQGIGSFLAWYQQKPGKAPKLLIYDASNLETGVPSRFSGSGSGTDFTLTISSLQPEDFATYYCQQGYYLWTFGQGTKVEIKR
As to B1, the binding entry with CD95 and in the assay with CD120a was “no binding” throughout.

B2: AG10058 (antibody, human IgG4 S228P, kappa, V domains shown)
VH: EVQLVESGGGLVQPGGSLRLSCAASGFSLSTSGVGVGWIRQAPGKGLEWLALIDWDDDKYYSPSLKSRLTISRDNSKNTLYLQLNSLRAEDTAVYYCARGGSDTVLGDWFAYWGQGTLVTVSS
VL: B1 VL with G28S, I29V, G30S, S31P, F32Y, N53S, T56S, Y93S
Take B2: the binding result with CD95 and with CD120a was “no binding” in each case.
